Article PMC4863158
No constants are given. Whether binding was seen depends on the method and setting. In cells and extracts the contact can be indirect. Some binding calls cover weakened binding; strength is not graded here. Tags and fused reporters may be left off the sequences shown.

The chains behind the UniProt entries cited, without tags or fusion partners.
UniProt Q3UHC2: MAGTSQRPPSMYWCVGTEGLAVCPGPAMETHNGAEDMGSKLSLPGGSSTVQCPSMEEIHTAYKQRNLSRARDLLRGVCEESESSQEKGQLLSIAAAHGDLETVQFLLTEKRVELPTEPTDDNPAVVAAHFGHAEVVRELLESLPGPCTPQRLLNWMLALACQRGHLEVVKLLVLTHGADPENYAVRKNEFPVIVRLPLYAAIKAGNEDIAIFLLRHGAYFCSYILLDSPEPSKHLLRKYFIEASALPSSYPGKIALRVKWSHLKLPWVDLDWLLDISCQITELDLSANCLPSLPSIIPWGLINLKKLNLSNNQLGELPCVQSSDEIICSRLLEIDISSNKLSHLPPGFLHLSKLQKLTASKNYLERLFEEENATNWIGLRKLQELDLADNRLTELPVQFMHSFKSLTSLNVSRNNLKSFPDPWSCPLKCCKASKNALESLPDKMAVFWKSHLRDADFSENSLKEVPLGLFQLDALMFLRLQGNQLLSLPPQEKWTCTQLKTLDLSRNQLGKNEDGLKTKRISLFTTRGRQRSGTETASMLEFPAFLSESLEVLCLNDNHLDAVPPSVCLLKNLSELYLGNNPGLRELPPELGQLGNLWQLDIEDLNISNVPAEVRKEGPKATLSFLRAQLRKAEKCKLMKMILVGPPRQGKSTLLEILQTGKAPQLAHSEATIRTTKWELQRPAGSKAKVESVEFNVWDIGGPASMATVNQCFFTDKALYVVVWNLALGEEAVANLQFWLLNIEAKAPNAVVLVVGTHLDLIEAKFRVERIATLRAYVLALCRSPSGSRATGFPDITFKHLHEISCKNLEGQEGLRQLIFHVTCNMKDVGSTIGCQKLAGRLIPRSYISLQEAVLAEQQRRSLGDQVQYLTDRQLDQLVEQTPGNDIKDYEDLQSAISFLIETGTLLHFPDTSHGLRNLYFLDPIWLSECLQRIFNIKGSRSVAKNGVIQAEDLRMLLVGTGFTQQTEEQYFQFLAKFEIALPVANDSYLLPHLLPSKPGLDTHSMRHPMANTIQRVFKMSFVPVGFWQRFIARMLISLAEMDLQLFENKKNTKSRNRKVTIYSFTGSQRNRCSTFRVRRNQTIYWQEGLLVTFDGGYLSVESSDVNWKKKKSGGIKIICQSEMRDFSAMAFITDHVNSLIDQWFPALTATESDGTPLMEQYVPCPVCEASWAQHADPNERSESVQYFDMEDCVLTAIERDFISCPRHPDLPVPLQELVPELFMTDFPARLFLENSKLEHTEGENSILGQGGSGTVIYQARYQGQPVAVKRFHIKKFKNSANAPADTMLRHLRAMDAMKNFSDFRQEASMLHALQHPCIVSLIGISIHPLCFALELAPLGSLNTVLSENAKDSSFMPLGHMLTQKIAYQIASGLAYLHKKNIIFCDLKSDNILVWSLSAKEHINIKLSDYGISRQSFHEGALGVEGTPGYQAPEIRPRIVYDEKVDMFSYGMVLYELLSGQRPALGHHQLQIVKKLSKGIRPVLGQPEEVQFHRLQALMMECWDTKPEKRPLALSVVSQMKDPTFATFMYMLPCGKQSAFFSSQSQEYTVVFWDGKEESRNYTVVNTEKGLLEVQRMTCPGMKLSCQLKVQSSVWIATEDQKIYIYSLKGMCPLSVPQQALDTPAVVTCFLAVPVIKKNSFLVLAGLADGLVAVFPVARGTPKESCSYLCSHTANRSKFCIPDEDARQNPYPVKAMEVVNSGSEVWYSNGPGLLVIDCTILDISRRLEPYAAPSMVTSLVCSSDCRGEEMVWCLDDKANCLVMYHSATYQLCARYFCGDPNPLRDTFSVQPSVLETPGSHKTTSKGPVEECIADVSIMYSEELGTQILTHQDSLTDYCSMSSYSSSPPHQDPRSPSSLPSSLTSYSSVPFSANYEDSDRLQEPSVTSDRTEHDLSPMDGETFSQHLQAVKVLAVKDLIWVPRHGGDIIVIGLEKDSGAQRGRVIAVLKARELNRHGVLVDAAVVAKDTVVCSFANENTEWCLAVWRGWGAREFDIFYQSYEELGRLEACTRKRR

Target: T1, C terminally FLAG-tagged mouse CARMA1 (mouse) (UniProt Q8CIS0)
T1 sequence: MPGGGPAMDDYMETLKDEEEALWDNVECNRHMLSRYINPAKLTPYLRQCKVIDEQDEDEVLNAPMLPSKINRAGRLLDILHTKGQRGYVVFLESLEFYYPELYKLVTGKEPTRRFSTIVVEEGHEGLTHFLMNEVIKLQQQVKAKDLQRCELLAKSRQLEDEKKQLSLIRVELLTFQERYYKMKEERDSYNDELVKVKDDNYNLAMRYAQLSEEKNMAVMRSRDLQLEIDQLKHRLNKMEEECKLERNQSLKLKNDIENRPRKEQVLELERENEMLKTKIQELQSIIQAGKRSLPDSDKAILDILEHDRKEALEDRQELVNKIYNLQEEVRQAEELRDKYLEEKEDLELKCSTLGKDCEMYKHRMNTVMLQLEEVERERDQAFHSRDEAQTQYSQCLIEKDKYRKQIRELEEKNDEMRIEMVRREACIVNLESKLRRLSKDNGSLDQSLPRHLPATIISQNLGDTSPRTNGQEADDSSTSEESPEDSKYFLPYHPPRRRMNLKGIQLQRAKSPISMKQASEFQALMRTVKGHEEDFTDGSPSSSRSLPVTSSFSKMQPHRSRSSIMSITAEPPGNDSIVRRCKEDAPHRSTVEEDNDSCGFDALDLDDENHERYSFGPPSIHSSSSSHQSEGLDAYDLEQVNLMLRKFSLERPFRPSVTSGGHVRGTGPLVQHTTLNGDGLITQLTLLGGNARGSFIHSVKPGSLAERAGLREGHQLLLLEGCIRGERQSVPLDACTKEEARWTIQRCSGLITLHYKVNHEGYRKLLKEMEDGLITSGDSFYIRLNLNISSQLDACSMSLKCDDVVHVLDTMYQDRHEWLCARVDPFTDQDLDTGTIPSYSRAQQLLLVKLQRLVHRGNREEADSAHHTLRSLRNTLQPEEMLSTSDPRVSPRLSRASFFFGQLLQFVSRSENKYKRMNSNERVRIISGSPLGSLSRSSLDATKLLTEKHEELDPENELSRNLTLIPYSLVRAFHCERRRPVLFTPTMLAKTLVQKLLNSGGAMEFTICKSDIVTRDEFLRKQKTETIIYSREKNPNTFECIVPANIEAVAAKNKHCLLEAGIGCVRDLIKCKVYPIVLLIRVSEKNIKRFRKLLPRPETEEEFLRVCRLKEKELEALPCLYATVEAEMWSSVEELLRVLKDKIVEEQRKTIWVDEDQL
Experiment: co-IP; HEK293T cells transfected with CARMA1-FLAG and LRRK1-GFP, unstimulated or stimulated with 50 ng/ml PMA and 0.5 uM ionomycin for 0, 2, 5 or 15 min; lysis buffer with 0.2% Nonidet P-40; CARMA1-FLAG precipitated with anti-FLAG (M2) on protein G Dynabeads; blot with anti-GFP

GFP-tagged mouse LRRK1 (leucine-rich repeat kinase 1) (from UniProt Q3UHC2 1-2014)
binding: binds
